Record: PubChem BioAssay AID1259307 (Sanger Institute, 2017)

- Screen: 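Identify kinases needed for SW620 growth or enhancing BYL719, cetuximab or trametinib effects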 (primary screen)
- System: SW620 colorectal cancer cells
- Knock-down reagent: siRNA pool against human genes
- Treatment: anchor drugs BYL719 at 1 µM, cetuximab at 5 µg/ml or trametinib at 10 nM, each beside a DMSO vehicle arm
- Read-out: 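Per-well viability versus non-targeting control pool, replicate-averaged, robust z-score from controls; synergy scores for BYL719 1 µM, cetuximab 5 µg/ml, trametinib 10 nM against DMSO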
- Direction: viability robust z-score, no drug and viability vs control, no drug: higher = more viable cells; synergy score with BYL719 and synergy score with cetuximab: higher = stronger synthetic lethality with the drug
- Active means: 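Essential when the viability robust z-score without drug is under -3; synergy scores are ignored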
- Meaning of the calls: active = essential (lethal alone); inactive = no change alone
This is an unselected part of 794 reagents. 15 of them (1.9%) count as active. 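Calls reflect lethality without any drug; synergy scores did not enter the calls.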 A number with no mark means an inactive call. No viability above 1 is reported: the scale is capped. Further read-outs or replicates are left out here. Not stated in the record: the amount of reagent, the time to read-out.

gene symbol,"viability robust z-score, no drug","viability vs control, no drug",synergy score with BYL719,synergy score with cetuximab
PRKAB2 (GeneID 5565),0.242,0.954,0.0493,0.0483
PIK3CG (GeneID 5294),-0.0577,0.927,0.0257,0.00989
CHD4 (GeneID 1108),-0.633,0.874,-0.0319,-0.0319
DLG4 (GeneID 1742),-1.41,0.802,-0.187,-0.192
CERT1 (GeneID 10087),0.736,1,-0.0727,0
STK17A (GeneID 9263),-0.748,0.863,-0.00838,-0.0961
PNCK (GeneID 139728),0.309,0.961,-0.0341,0.0145
MECOM (GeneID 2122),0.736,1,0.0106,0
NR4A2 (GeneID 4929),-0.597,0.877,0.0259,0.0377
FXN (GeneID 2395),0.736,1,-0.0919,0.00208
SGK1 (GeneID 6446),0.736,1,-0.0763,0
PCBP1 (GeneID 5093),0.681,0.995,0.00492,-0.00508
TCF12 (GeneID 6938),0.736,1,-0.0639,0
CIB2 (GeneID 10518),-2.16,0.733,-0.0302,0.011
IP6K3 (GeneID 117283),-0.579,0.879,-0.0244,0.0683
AK1 (GeneID 203),0.353,0.965,0.041,0.0742
ADCK2 (GeneID 90956),0.736,1,0.0642,0.0997
TBX3 (GeneID 6926),0.617,0.989,-0.102,-0.011
LATS1 (GeneID 9113),0.549,0.983,-0.0912,-0.0173
ATP23 (GeneID 91419),-1.15,0.826,0.0102,0.0112
CDK2 (GeneID 1017),0.736,1,-0.0139,0
RSKR (GeneID 124923),0.68,0.995,0.0461,0.0134
MARK4 (GeneID 57787),0.736,1,0.00529,0.0447
RPS6KA5 (GeneID 9252),-0.971,0.842,0.0342,-0.0707
DSTYK (GeneID 25778),0.736,1,-0.0236,0
STK25 (GeneID 10494),-0.0151,0.931,-0.0897,-0.0326
DLG1 (GeneID 1739),0.715,0.998,0.0721,0.0257

Entries listed so far whose gene name begins with P or p (4):
gene symbol,"viability robust z-score, no drug","viability vs control, no drug",synergy score with BYL719,synergy score with cetuximab
PRKAB2 (GeneID 5565),0.242,0.954,0.0493,0.0483
PIK3CG (GeneID 5294),-0.0577,0.927,0.0257,0.00989
PNCK (GeneID 139728),0.309,0.961,-0.0341,0.0145
PCBP1 (GeneID 5093),0.681,0.995,0.00492,-0.00508

The listing continues.
gene symbol,"viability robust z-score, no drug","viability vs control, no drug",synergy score with BYL719,synergy score with cetuximab
PIK3C2B (GeneID 5287),0.646,0.992,-0.00404,-0.00828
BRSK2 (GeneID 9024),0.314,0.961,0.0201,-0.0283
MAP3K20 (GeneID 51776),-0.153,0.918,-0.117,-0.082
DGKH (GeneID 160851),0.736,1,0.0638,0.0898
NEK7 (GeneID 140609),0.394,0.968,-0.0117,0.0201
MKNK1 (GeneID 8569),0.736,1,-0.00745,0.00868
PANK1 (GeneID 53354),0.736,1,-0.0125,0
STKLD1 (GeneID 169436),0.104,0.942,0.132,0.00815
PHKA2 (GeneID 5256),-2.09,0.739,-0.139,-0.202
NAGK (GeneID 55577),-2.16,0.733,-0.155,-0.112
TAB1 (GeneID 10454),0.736,1,-0.00413,0
DGKD (GeneID 8527),0.736,1,0.0171,0.0408
BRDT (GeneID 676),-1.57,0.788,-0.182,-0.212
SIK1 (GeneID 150094),-0.147,0.919,-0.0358,0.0325
RET (GeneID 5979),0.736,1,-0.0919,0
CLSPN (GeneID 63967),0.736,1,0.0227,0.101
PKIB (GeneID 5570),0.611,0.988,0.0242,-0.0115
MSR1 (GeneID 4481),0.736,1,0.0218,0.0584
FN3K (GeneID 64122),0.131,0.944,0.0175,0.0116
ATR (GeneID 545),0.736,1,-0.0919,0
FER (GeneID 2241),0.736,1,-0.0919,0.0443
FN1 (GeneID 2335),0.421,0.971,-0.118,-0.0291
PIK3R2 (GeneID 5296),-1.14,0.827,-0.249,-0.173
MAST1 (GeneID 22983),0.736,1,0.00136,0.013
PPP2R1A (GeneID 5518),0.736,1,-0.0919,0
TTBK1 (GeneID 84630),-0.4,0.895,-0.044,-0.0287
MAP3K1 (GeneID 4214),-0.175,0.916,-0.0635,-0.0841
PRKD3 (GeneID 23683),0.245,0.955,0.0471,0.0617
THNSL1 (GeneID 79896),0.736,1,-0.0223,0
DAPK3 (GeneID 1613),0.238,0.954,0.0153,-0.0459
CAMK4 (GeneID 814),-0.65,0.872,-0.0858,-0.128
MAPK11 (GeneID 5600),0.736,1,0.0402,0.0727
LATS2 (GeneID 26524),0.736,1,-0.0567,0
PI4KA (GeneID 5297),0.736,1,-0.0811,0
TGFBR2 (GeneID 7048),0.57,0.985,-0.0155,-0.0131
PIK3R3 (GeneID 8503),0.252,0.955,-0.04,-0.0447
